Where “and” joins values, the source holds several entries; their conditions need not be identical. Equal entries are not always repeated. Some of the results follow. Shown are side measurements of this screen, not its main read-out; they come without a call. The list favours compounds with an active or inconclusive main result. Potencies come from curve fits of mixed quality, noted in brackets.

The experiment can be described thus: qHTS Assay for Modulators of Lamin A Splicing. Conditions: HeLa LMNA splicing GFP/RFP minigene ratio, 48 h. Summed up: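 Read-out is the ratio of GFP to DsRed2 object intensity, acquired by 488 nm laser-scanning cytometry on HeLa lamin A-EGFP minigene reporter cells. Compound incubation 48 hrs at 37 °C in Opti-MEM with 2% FBS; DMSO 0.5% final.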
(In general: In qHTS, concentration-response curves come from the screen itself.)

[1] abbreviates: measured here: GFP splicing reporter channel.
Where [2] appears, read: measured here: RFP viability control channel.

What is called AC50 is the concentration at which the activity in the assay is half-maximal. Take `COc1ccc(/C=N/Nc2nc(N3CCCCC3)nc(N3CCCCC3)n2)cc1[N+](=O)[O-]`: the AC50 was 0.631 µM [rising, full curve, poor fit] under setting [1] and 0.708 µM [rising, full curve] under setting [2].
For `COc1cc(C(=O)N2CCCc3ccccc32)cc(OC)c1OC`, under setting [2], the AC50 was 22.4 µM [rising, single point].
For the compound `CCOC(=O)C1(CCc2ccccc2)CCN(Cc2cnc(N(C)C)s2)CC1`, the AC50 under setting [1] was 35.5 µM [falling, single point].
With `O=C(NC1CC(=O)N(c2ccc(Cl)cc2)C1)c1ccc(S(=O)(=O)N2CCOCC2)cc1` (configuration not stated), the AC50 under setting [1] was 0.355 µM [falling, full curve, poor fit].
On to `CCCCOC(=O)c1ccc(Nc2nnc(-n3nc(C)cc3C)c3ccccc23)cc1`, for which, under setting [2], the AC50 was 0.00316 µM [falling, full curve, poor fit].
`CCOc1ccc(OCC)c(NC(=O)CSc2nnc(Cn3cnc4ccccc43)n2C)c1`: the AC50 under setting [2] was 35.5 µM [rising, single point].
Regarding `Cc1ccc(Cl)cc1NC(=O)C1CCN(c2nc3ccccc3n3cccc23)CC1`, the half-maximal activity concentration (AC50) reads like this: under setting [1], 25.1 µM [falling, partial curve]; under setting [2], 31.6 µM [falling, partial curve].
For the compound `CCCc1nc(SCC(=O)Nc2nc3c(s2)CCCC3)c2ccccc2n1`, the AC50 is 35.5 µM [falling, single point] under setting [1] and 35.5 µM [falling, single point] under setting [2].
`O=C(CSCc1ccc(F)cc1)Nc1nc2c(s1)CCCC2`: under setting [2], the AC50 was 11.2 µM [rising, partial curve, poor fit].
As for `COc1cccc(-c2cc(C(=O)N3CCN(Cc4ccccc4)CC3)no2)c1`, under setting [2], the AC50 is 14.1 µM [rising, single point].
Take `O=C(Cn1cnc2ccccc2c1=O)N1CCc2ccccc2C1`: the AC50 under setting [1] was 0.0224 µM [rising, full curve, poor fit].
For `O=C1CN(C(=O)COc2ccc(Br)cc2)c2ccccc2N1`, the AC50 under setting [2] was 5.01 µM [falling, full curve, poor fit].
Turning to `CCCN(CCC)c1nc2ccccc2nc1C(C#N)C(=O)OCCOC` (configuration not stated), the AC50 under setting [1] is 35.5 µM [rising, single point].
In the case of `Cc1cnccc1CN(C)C(=O)CC1C(=O)NCCN1CC1CCCCC1` (configuration not stated), the AC50 by setting is: under setting [1], 17.8 µM [falling, partial curve, poor fit]; under setting [2], 17.8 µM [falling, partial curve, poor fit].
As for `Cc1cccc(OCCN2C(=O)C(=O)c3cc(C)ccc32)c1`, the AC50 is, setting by setting: under setting [1], 17.8 µM [falling, partial curve, poor fit]; under setting [2], 2.24 µM [falling, partial curve, poor fit].
Turning to `CCOC(=O)c1ccc2c(c1)N(Cc1ccccc1C)C(=O)c1ccccc1S2=O` (configuration not stated), the AC50 is 3.16 µM [rising, full curve, poor fit] under setting [1] and 10 µM [rising, partial curve] under setting [2].
As for `O=S(=O)(Nc1ncnc2sc3c(c12)CCC3)c1ccc2ccccc2c1`, the AC50 was 14.1 µM [rising, single point] under setting [1] and 12.6 µM [rising, partial curve] under setting [2].
For `CC(C)Cn1c(N)c(C(=O)COC(=O)c2cc(-c3ccccc3)nc3ccccc23)c(=O)n(C)c1=O`, the AC50 under setting [2] was 14.1 µM [rising, single point].
Consider `COc1ccccc1NS(=O)(=O)c1cc(NC(=O)/C=C/c2cccs2)ccc1N1CCOCC1`, for which the AC50 under setting [2] was 14.1 µM [rising, single point].
Still for that read-out and setting: the value for `CC(C)c1ccc(OCc2cccc(C(=O)N/N=C/c3cccnc3)c2)cc1` was 0.251 µM [falling, full curve, poor fit].
In the case of `CCCCCCNC(=O)n1cc(F)c(=O)[nH]c1=O`, the AC50 under setting [1] was 14.1 µM [rising, partial curve, poor fit] and the AC50 under setting [2] was 0.1 µM [rising, full curve].
Take `O=C(c1cc2ccccn2n1)N1CCN(c2cccc(C(F)(F)F)c2)CC1`: the AC50 was 3.98 µM [rising, full curve, poor fit] under setting [1] and 8.91 µM [rising, partial curve] under setting [2].
For `N=c1c2c3c(sc2ncn1Cc1ccccc1)CCCC3`, the AC50 by setting is: under setting [1], 11.2 µM [rising, partial curve]; under setting [2], 22.4 µM [rising, partial curve].
With `Nc1n[nH]c(-c2ccccc2)c1-c1ccccc1`, the AC50 under setting [1] was 35.5 µM [rising, single point].
Consider `COC(=O)c1cc(NS(=O)(=O)c2cc(Br)cc3c2N(C(C)=O)CC3)cc(C(=O)OC)c1`, for which the AC50 reads like this: under setting [1], 1.78 µM [rising, partial curve, poor fit]; under setting [2], 1.26 µM [rising, partial curve, poor fit].
`COC(=O)c1ccc(-n2c(C)cc(C(=O)CCl)c2C)cc1`: the AC50 under setting [1] is 25.1 µM [falling, single point] and the AC50 under setting [2] was 35.5 µM [falling, single point].
As for `Cc1cc(C(=O)CSc2nnc(-c3ccccc3F)o2)c(C)n1Cc1cccs1`, the half-maximal activity concentration (AC50) by setting is: under setting [1], 17.8 µM [rising, partial curve]; under setting [2], 15.8 µM [rising, partial curve].
For `CCCC(=O)c1ccc(OC(=O)c2c(-c3ccccc3Cl)noc2C)cc1`, the AC50 under setting [1] is 0.282 µM [falling, full curve, poor fit].
Regarding `CCOC(=O)c1c(CN2CCOCC2)n(-c2ccccc2)c2cc(Br)c(O)cc12`, the AC50 under setting [2] was 12.6 µM [falling, partial curve].
For the compound `N#Cc1c(NC(=O)CS(=O)(=O)c2ccc(Cl)cc2)sc2c1CCCCC2`, the AC50 under setting [2] is 31.6 µM [rising, single point].
On to `CC1CN(C(=O)c2cccs2)CCN1C(=O)c1cccs1` (configuration not stated), for which, under setting [2], the AC50 is 35.5 µM [rising, single point].
In the case of `Cc1nc2ccc(S(=O)(=O)N(C)CC(=O)N3CCc4ccccc43)cc2s1`, the AC50 under setting [1] is 25.1 µM [rising, single point] and the AC50 under setting [2] is 25.1 µM [rising, partial curve].
Consider `CCN(CC)S(=O)(=O)c1cccc(-c2nc3n(n2)Cc2ccccc2-3)c1`, for which the AC50 under setting [2] was 11.2 µM [rising, partial curve, poor fit].
In the case of `C[C@H]1Cc2c(-c3ccccc3)nc3c(c2CO1)CN(C(=O)NCCc1c[nH]c2ccccc12)CC3`, the AC50 under setting [1] was 0.562 µM [rising, partial curve, poor fit].
In the case of `O=C(CSc1ccc2nnc(CCNS(=O)(=O)c3ccccc3)n2n1)Nc1nc2ccccc2s1`, the AC50 under setting [2] is 15.8 µM [rising, single point].
Consider `CCCCCOC(=O)C1[C@H]2C(=O)N(CCCOC)C[C@]23C=C[C@H]1O3` (some centres not stated), for which, under setting [2], the AC50 was 0.02 µM [falling, full curve, poor fit].
For the compound `O=C(NNC(=S)Nc1ccccc1C(F)(F)F)c1ccc(Br)o1`, the AC50 is, setting by setting: under setting [1], 0.316 µM [falling, full curve, poor fit]; under setting [2], 0.158 µM [falling, full curve, poor fit].
As for `COc1cccc(NC(=O)c2ccc3nc(Cc4ccccc4)oc3c2)c1`, the AC50 under setting [1] is 11.2 µM [rising, single point].
`CC(C)(CO)NCc1cc(Br)ccc1OCc1ccccc1`: the AC50 under setting [2] is 20 µM [rising, single point].
For `CCc1ccc(-n2c(SCc3cccc(F)c3)nc3[nH]ncc3c2=O)cc1`, the AC50 under setting [1] is 5.62 µM [rising, single point].
Consider `S=C(NCc1ccco1)N1CCN(C/C=C/c2ccccc2)CC1`, for which, under setting [1], the AC50 was 17.8 µM [falling, partial curve].
Regarding `COc1ccc(N(C)C(=O)c2cc(S(=O)(=O)N3CCc4ccccc43)cn2C)c(OC)c1`, the AC50 is, setting by setting: under setting [1], 12.6 µM [falling, partial curve]; under setting [2], 35.5 µM [falling, partial curve].
As for `O=C(CSc1nc2cc(S(=O)(=O)N3CCOCC3)ccc2o1)NC1CCCc2ccccc21` (configuration not stated), the AC50 was 15.8 µM [rising, partial curve, poor fit] under setting [1] and 15.8 µM [rising, partial curve] under setting [2].
As to `CN(Cc1ccon1)C(=O)CCc1nnc(Cc2ccc(-c3ccccc3)cc2)o1`, the AC50 under setting [1] is 20 µM [falling, partial curve, poor fit].
As for `O=C(CSc1nc2ccccc2[nH]1)N=Nc1c(O)[nH]c2ccccc12`, the AC50 under setting [2] was 12.6 µM [rising, partial curve, poor fit].
Still for that read-out and setting: the value for `Cc1ccc(S(=O)(=O)Nc2ccc(N(C)C)cc2)cc1` was 0.00316 µM [rising, full curve, poor fit]; that for `CCN(CC)S(=O)(=O)c1cccc(C(=O)N[C@H](C(=O)NCc2ccc(Cl)cc2)C(C)C)c1` was 11.2 µM [rising, partial curve].
In the case of `COc1cc(CNCCc2c[nH]c3ccccc23)cc(Cl)c1OCC(N)=O`, under setting [2], the AC50 was 2.82 µM [falling, full curve, poor fit].
Take `Cc1onc(-c2ccccc2)c1C(=O)N1CC(C)OC(C)C1` (configuration not stated): the AC50 runs as follows: under setting [1], 5.62 µM [falling, full curve, poor fit]; under setting [2], 4.47 µM [falling, full curve, poor fit].
For `COc1ccc(C(=O)N2CCN(c3nc4ccccc4o3)CC2)cc1OC`, the AC50 under setting [2] is 14.1 µM [rising, single point].
On to `Cc1onc(C(=O)NCc2cccs2)c1[N+](=O)[O-]`, for which, under setting [1], the AC50 was 5.62 µM [rising, full curve].
On to `COc1ccc(C2Nc3ccccc3C(=O)N2c2ccccc2)cc1COc1ccccn1` (configuration not stated), for which the AC50 under setting [1] was 0.1 µM [rising, full curve].
For `COc1ccc(Cl)cc1C(=O)NCCc1ccc(S(=O)(=O)NC(=O)NC2CCCCC2)cc1`, the AC50 is 10 µM [falling, partial curve, poor fit] and 5.62 µM [falling, partial curve, poor fit] and 282 nM [falling, full curve, poor fit] under setting [1]; 11.2 µM [falling, partial curve, poor fit] under setting [2].

Source of the values: PubChem BioAssay AID1487 (National Center for Advancing Translational Sciences (NCATS), 2009).
